The values that follow are results of earlier work, collected in PMC4467547 (Journal of Medicinal Chemistry, 2015).

The data set deals with healthy kidney cells (Vero). The note with it: read-out: EC50 cytotoxicity; cited from earlier work.

SMILES strings stand for the structures.

In general, EC50 refers to the concentration at which the effect is half-maximal. For the compound `O=C(CCCCCCC(=O)Nc1ccccc1)NO` [SAHA, suberoylanilide hydroxamic acid], the EC50 is 5.2 ± 0.96 µM.
